PubChem BioAssay AID588590 (National Center for Advancing Translational Sciences (NCATS), 2011)
Hit rate of the full screen: of about 390,000 compounds, about 4,000 (1%) were called active. This list was built around the results that the source calls inconclusive (neither active nor inactive); the mix of calls is not that of the screen. Calls follow the shape of the dose curve; as a rule, active = well fitted inhibition curve with a large enough effect; inconclusive = small, poorly fitted or top-dose-only effect, or another doubt; inactive = no such curve, though single readings can be large or run the other way. A potency beside an inconclusive call is a rough fit, not a confirmed value.

By UniProt entry, the sequences of proteins in these tests, tags left out. Where a name states a change or a piece, a line headed by the entry shows the natural chain unless it says otherwise.
UniProt Q9UNA4: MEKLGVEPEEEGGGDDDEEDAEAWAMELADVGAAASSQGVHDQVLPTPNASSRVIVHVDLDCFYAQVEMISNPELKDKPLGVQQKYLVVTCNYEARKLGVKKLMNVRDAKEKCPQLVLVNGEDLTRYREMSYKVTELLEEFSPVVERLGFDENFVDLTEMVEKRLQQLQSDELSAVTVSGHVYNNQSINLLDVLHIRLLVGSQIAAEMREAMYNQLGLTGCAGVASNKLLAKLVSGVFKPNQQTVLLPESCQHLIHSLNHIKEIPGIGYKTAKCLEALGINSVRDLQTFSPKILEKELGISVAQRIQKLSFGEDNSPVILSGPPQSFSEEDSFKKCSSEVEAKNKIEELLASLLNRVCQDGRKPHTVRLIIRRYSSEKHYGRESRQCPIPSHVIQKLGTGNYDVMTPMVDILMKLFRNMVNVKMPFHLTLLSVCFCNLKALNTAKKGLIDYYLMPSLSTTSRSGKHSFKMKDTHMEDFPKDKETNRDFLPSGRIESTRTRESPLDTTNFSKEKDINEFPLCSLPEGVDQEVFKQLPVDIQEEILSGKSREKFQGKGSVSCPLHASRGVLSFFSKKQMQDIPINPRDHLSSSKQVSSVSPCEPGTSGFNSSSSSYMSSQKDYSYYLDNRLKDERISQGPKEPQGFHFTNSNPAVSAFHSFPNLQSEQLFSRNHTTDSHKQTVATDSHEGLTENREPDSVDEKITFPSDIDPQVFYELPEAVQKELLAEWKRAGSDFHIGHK

Molecular target: DNA polymerase iota (Homo sapiens) (UniProt Q9UNA4)
Assay: qHTS for Inhibitors of Polymerase Iota
Conditions: Pol iota fluorescent replication assay, 10 min; series mostly up to 115 µM
Method in brief: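 Fluorescent replication assay read twice, at 0 min and 10 min after adding 50 nM (final) substrate. Enzyme (10 nM) and compounds were first incubated 15 min at room temperature; enzyme-free buffer wells were negative controls.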
Potency is read from the fitted curve at half-maximal effect.

Row | SMILES | Potency
1 | COc1ccccc1CNC(=O)CCc1c(C)nn(-c2ccc(N3CCCCC3)nn2)c1C | inactive
2 | CN(Cc1ccccc1)C(=O)CCC1CCN(S(=O)(=O)N(C)C)CC1 | inconclusive: 89.1 µM [inhibitor, partial curve]
3 | CC(N=Cc1cc([N+](=O)[O-])ccc1O)c1ccccc1 (centres undefined) | inactive
4 | Cc1ccc(Cl)cc1N1CCN(C(=O)CCS(=O)(=O)c2ccc3c(c2)oc(=O)n3C)CC1 | inconclusive: 56.2 µM [inhibitor, partial curve, poor fit]
5 | O=C(COC(=O)c1ccc(N2CCCC2=O)cc1)Nc1ccccc1 | inconclusive: 100 µM [inhibitor, single point]
6 | CC(C)=CCC/C(C)=C/COc1c2occc2cc2ccc(=O)oc12 | inactive
7 | CCCOC(=O)c1c(NC(=O)C2C3C=CC(C3)C2C(=O)O)sc2c1CCC(C)C2 (centres undefined) | inconclusive: 22.4 µM [inhibitor, single point]
8 | COc1cc(/C=N/NC(=O)C(=O)NCc2ccco2)cc(Br)c1O | inconclusive: 28.2 µM [inhibitor, full curve, poor fit]
9 | CN(Cc1nc(-c2cnccn2)no1)Cc1cccc2ccccc12 | inconclusive: 0.631 µM [inhibitor, full curve, poor fit]
10 | Cc1cc(NC(=O)c2cc(-c3cccs3)on2)no1 | inactive
11 | COc1ccc(OCc2cc(C(=O)N(C)C3CCOCC3)no2)c2ccccc12 | inconclusive: 56.2 µM [inhibitor, partial curve, poor fit]
12 | CCOc1ccc(NC(=O)CCc2nnc3n(C)c(=O)c4sccc4n23)cc1 | inactive
13 | Cc1ccccc1NC(=O)C(=Cc1ccc(C(=O)O)cc1)C(=O)Nc1ccccc1C | inconclusive: 28.2 µM [inhibitor, partial curve, poor fit]
14 | CCOc1ccccc1Nc1sc(C(=O)c2ccc(Cl)cc2)c(N)c1S(=O)(=O)c1ccccc1 | inactive
15 | CCOC(=O)N1CN(C(=O)OCC)CN(C(=O)OCC)C1 | inconclusive: 100 µM [inhibitor, single point]
16 | CN=c1sc(C(=O)Nc2cccc(Cl)c2)cc(=O)n1C | inactive
17 | CCc1cc2c(-c3ccccc3)cc(=O)oc2c(CN2CCOCC2)c1O | inconclusive: 79.4 µM [inhibitor, single point]
18 | COC(=O)CCCCCCCCC(O)CN1CCCCC1 (centres undefined) | inconclusive: 89.1 µM [inhibitor, single point]
19 | O=C(O)c1ccc2c(c1)C(=O)N(CCCCCCCN1C(=O)c3ccc(C(=O)O)cc3C1=O)C2=O | inactive
20 | O=C(O)c1ccc2c(c1Nc1ccccc1)C(=O)c1ccccc1C2=O | inactive
21 | O=C(CCSc1nc(-c2ccc3c(c2)OCO3)cc(C(F)(F)F)n1)NCc1ccco1 | inconclusive: 35.5 µM [inhibitor, full curve]
22 | COc1ccc(C(=O)Nc2nnc(Cc3ccc(OC)c(OC)c3)s2)c(OC)c1 | inconclusive: 39.8 µM [inhibitor, single point]
23 | Cc1ccccc1C(=O)N1CCC(C(=O)NN2C(=O)NC3(CCC(C)CC3)C2=O)CC1 (centres undefined) | inconclusive: 35.5 µM [inhibitor, single point]

Row | SMILES | Potency
24 | O=C1C2C=CC=CC2=NC(=S)N1CCN1CCC(=C(c2ccc(F)cc2)c2ccc(F)cc2)CC1 (centres undefined) | inactive
25 | COc1ccc(C(=O)C[n+]2cccc(C(N)=O)c2)cc1 | inconclusive: 0.631 µM [inhibitor, full curve, poor fit]
26 | Cc1cccc(N2CCN(C(=O)CN3C(=O)COc4ccc(S(=O)(=O)N5CCCC5)cc43)CC2C)c1 (centres undefined) | inactive
27 | CCOC(=O)C1(S(=O)(=O)c2ccc(Cl)cc2)CCN(Cc2ccc(Cl)cc2)CC1 | inconclusive: 22.4 µM [inhibitor, single point]
28 | COc1ccc(CCNC(=O)CCc2nc3sc4c(c3c(=O)[nH]2)CCCC4)cc1 | inconclusive: 56.2 µM [inhibitor, partial curve, poor fit]
29 | Cc1cc(C(=O)NC(Cc2ccccc2)C(=O)O)c(C)o1 (centres undefined) | inconclusive: 35.5 µM [inhibitor, partial curve, poor fit]
30 | Cc1cccn2c(=O)c3cc(S(=O)(=O)c4ccccc4)c(=N)n(Cc4ccc(F)cc4)c3nc12 | inactive
31 | Cc1ccc(S(=O)(=O)N(CCO)c2cc3c(s2)CCCC3)cc1 | inconclusive: 25.1 µM [inhibitor, full curve]
32 | O=C1CSC(=S)N1/N=C/C=C/c1ccccc1 | active: 20 µM
33 | Cc1ccccc1NC(=O)C1C2/C=C\CCCCC21 (centres undefined) | inconclusive: 89.1 µM [inhibitor, single point]
34 | Cc1ccc(C)c(N2CCN(C(=O)CS(=O)(=O)c3cccc4nsnc34)CC2)c1 | inconclusive: 79.4 µM [inhibitor, partial curve, poor fit]
35 | CS(=O)(=O)N(CC(O)CON=C1c2ccccc2-c2ccccc21)c1ccc(F)cc1 (centres undefined) | inconclusive: 39.8 µM [inhibitor, partial curve, poor fit]
36 | COc1cccc(CNCCSc2nnnn2-c2ccccc2)c1OC | inactive
37 | Cc1ccc(/C=C/c2onc(C)c2S(=O)(=O)N2CCC(C(=O)NCc3ccc(OC(C)C)cc3)CC2)cc1 | inactive
38 | CC1Cc2ccccc2N1C(=O)c1cc2sccc2n1Cc1ccc(F)cc1 (centres undefined) | inconclusive: 3.16 µM [inhibitor, single point]
39 | CCn1c(SCC(=O)c2ccccc2)nnc1-c1cccc(Cl)c1 | inactive
40 | Cc1ccc(C(c2nnnn2Cc2cccs2)N2CCN(C(=O)c3ccco3)CC2)cc1 (centres undefined) | inconclusive: 39.8 µM [inhibitor, partial curve, poor fit]
41 | O=[N+]([O-])c1ccccc1/C=C/CN1CCSCC1 | inconclusive: 0.708 µM [inhibitor, full curve, poor fit]
42 | CCc1ccc(NC(=O)CSc2ncc(S(=O)(=O)c3cc(C)ccc3C)c(=O)[nH]2)cc1 | inconclusive: 79.4 µM [inhibitor, partial curve, poor fit]
43 | O=C(CN1C(=O)CCc2cc(S(=O)(=O)N3CCCCC3)ccc21)NCc1ccc(Cl)cc1 | inconclusive: 100 µM [inhibitor, single point]
44 | Cc1cc([N+](=O)[O-])nn1CC(=O)NCCCN1CCOCC1 | inactive
45 | CN1C(=O)C(O)(C2COC(C)(C)CC2=O)c2cc(Br)ccc21 (centres undefined) | inactive
46 | CC(C)C[C@H](NC(=O)OC(C)(C)C)C(=O)N/N=C/C1=Cc2ccccc2OC1C (some centres undefined) | inconclusive: 50.1 µM [inhibitor, full curve, poor fit]

Row | SMILES | Potency
47 | COc1ccc(C(=O)C[n+]2cccc(Br)c2)cc1 | inactive
48 | CN(C)c1ccc(/C=C/C=C2/SC(=S)N(c3ccccc3)C2=O)cc1 | inconclusive: 11.2 µM [inhibitor, partial curve, poor fit]
49 | O=C(COc1ccccc1)NC(NC(=S)Nc1ccccc1C(=O)O)C(Cl)(Cl)Cl (centres undefined) | inconclusive: 35.5 µM [inhibitor, single point]
50 | O=C(N/N=C/c1cc(Br)ccc1O)c1ccncc1 | inactive
51 | O=C(CCc1ccccc1)N[C@@H]1c2ccccc2CC[C@H]1OCc1ccccc1 | inconclusive: 0.708 µM [inhibitor, full curve, poor fit]
52 | COc1ccccc1O | inactive
53 | c1ccc2c(N3CCCC3)nc(-c3ccncc3)nc2c1 | inconclusive: 35.5 µM [inhibitor, partial curve, poor fit]
54 | COc1cccc2cc(-c3nc4ccccc4[nH]3)c(=O)oc12 | inconclusive: 12.6 µM [inhibitor, full curve, poor fit]
55 | COc1ccc(-c2noc(CSc3nnc(C)n3-c3ccc(C)c(C)c3)n2)c(OC)c1 | inactive
56 | NS(=O)(=O)c1ccc(NNC(=O)c2ccccc2C(=O)O)cc1 | inactive
57 | CCN(CC)S(=O)(=O)c1cccc(C(=O)NCCCn2ccnc2)c1 | inconclusive: 39.8 µM [inhibitor, full curve, poor fit]
58 | C=CCNc1ncnc2c1[nH]c1ccc(C)cc12 | inconclusive: 79.4 µM [inhibitor, partial curve]
59 | COc1cc2oc3ccc(C#Cc4ccccn4)cc3c(=O)c2cc1OC | inconclusive: 15.8 µM [inhibitor, partial curve, poor fit]
60 | CC(C)c1ccc[n+](-c2nc([O-])sc2C=O)c1 | inactive
61 | Oc1c(C(c2ccccc2F)N2CCCC2)sc2nc(-c3ccco3)nn12 (centres undefined) | inconclusive: 89.1 µM [inhibitor, single point]
62 | CCCSc1nnc2c(n1)OC(c1cccs1)Nc1ccc(Br)cc1-2 (centres undefined) | inconclusive: 89.1 µM [inhibitor, partial curve, poor fit]
63 | Cc1cn2c(=O)cc(COC(=O)c3cccc(NC(=O)c4ccccc4C)c3)nc2s1 | inactive
64 | COc1ccc(CCNC(=O)C(=O)NCC(c2cccs2)S(=O)(=O)c2ccc(C)cc2)cc1 (centres undefined) | inactive
65 | Cc1ccc(-n2cccc2/C=C2\C(=N)N3N=C(c4ccco4)SC3=NC2=O)cc1 | active: 20 µM
66 | CCC(C)C(NS(=O)(=O)c1ccc(C)cc1)C(=O)Oc1ccc2c3c(c(=O)oc2c1)CCC3 (centres undefined) | inconclusive: 89.1 µM [inhibitor, single point]
67 | CC1=CCC(C(=O)O)C(C(=O)Nc2ccc(-c3nc4ccc(C)cc4s3)cc2)C1 (centres undefined) | inconclusive: 56.2 µM [inhibitor, partial curve, poor fit]
68 | CCOC(=O)c1c(C)oc2c1C(=O)c1ccccc1C2=O | inconclusive: 11.2 µM [inhibitor, partial curve, poor fit]
69 | Cc1cc(C)c(S(=O)(=O)Nc2ccc(O)c(Sc3ncn[nH]3)c2)c(C)c1 | inconclusive: 112 µM [inhibitor, single point]

Random excerpt: three compounds from above.
Row | SMILES | Potency
31 | Cc1ccc(S(=O)(=O)N(CCO)c2cc3c(s2)CCCC3)cc1 | inconclusive: 25.1 µM [inhibitor, full curve]
27 | CCOC(=O)C1(S(=O)(=O)c2ccc(Cl)cc2)CCN(Cc2ccc(Cl)cc2)CC1 | inconclusive: 22.4 µM [inhibitor, single point]
32 | O=C1CSC(=S)N1/N=C/C=C/c1ccccc1 | active: 20 µM
